Publication PMC7559231, “Drug-induced cholestasis assay in primary hepatocytes” (MethodsX, 2020)

System: sandwich-cultured human hepatocytes
Assay: Drug-induced cholestasis (DIC) assay: urea formation in sandwich-cultured human hepatocytes with and without the bile salt mixture
Conditions: lowest in vitro concentration with DICI < 0.78 / Cmax,total
Excerpt: Drug-induced cholestasis (DIC) is a major cause of attrition during drug development and post-marketing withdrawal. Early detection of DIC is crucial for avoiding financial losses and improving drug safety. Preclinical assays for DIC detection often rely on evaluation of the test compound towards individual cellular targets such as their inhibitory potential towards the bile salt export pump (BSEP) by using BSEP membrane vesicles. However, the underlying mechanisms of DIC development are more complex involving multiple other transporters and nuclear receptors. A more comprehensive in vitro model such as sandwich-cultured human hepatocytes (SCHH) are more suited due to the presence of metabolizing enzymes and transporters relevant to bile salt disposition. The assay described here relies on changes in the ability of SCHH to produce urea from ammonia in the absence and presence of a (patho-)physiologically relevant bile salt mixture. […] Measuring changes in urea production allows for the quantitative evaluation of the hepatocyte's biochemical and functional integrity. The colorimetric quantitation of urea formation is based on the reaction between urea and diacetylmonoxime.
By determining the ratio of urea formation after incubation with test compound in absence and in presence of the bile salt mixture, the DIC index (DICI) value can be calculated. […]

For `CCCCc1oc2ccccc2c1C(=O)c1cc(I)c(OCCN(CC)CC)c(I)c1` [Amiodarone, amiodarone], the “DICI-based SM obtained with the ‘original’ LOAEL method 24 h” value (24 h incubation) was 30.86 and the “DICI-based SM obtained with the ‘original’ LOAEL method 48 h” value (48 h incubation) was 30.86.
